Measurements from PMC4655838, “Versatility in phospho-dependent molecular recognition of the XRCC1 and XRCC4 DNA-damage scaffolds by aprataxin-family FHA domains” (DNA Repair, 2015).

Assays:
[1] = target: aprataxin FHA domain (residues 1-105); test: ITC; peptide injected (30 x 10 ul) into FHA domain in the cell; 22 °C; 50 mM HEPES pH 7.5, 150 mM NaCl, 5 mM β-mercaptoethanol; XRCC1 peptides 1 mM into 100 μM protein, XRCC4 peptides 300 μM into 30 μM protein; single-site binding model; both purified
[2] = target: aprataxin FHA domain R42A (residues 1-105); test: as above

Binder	binding [1]	binding [2]
YAGSTDENTDSEEHQ (phosphothreonine at 519; C-terminal amide) [XRCC1 515-529 peptide phosphorylated on Thr519]	binds	
YDESTDEES (phosphothreonine at 233; C-terminal amide) [XRCC4 229-237 peptide phosphorylated on Thr233]	binds	
YDESTDEES (phosphoserine at 232; phosphothreonine at 233; C-terminal amide) [XRCC4 229-237 peptide phosphorylated on Ser232 and Thr233]	binds	
YAGSTDENTDSEEHQ (phosphothreonine at 523; C-terminal amide) [XRCC1 515-529 peptide phosphorylated solely on Thr523]	binds	
YAGSTDENTDSEEHQ (phosphoserine at 518; phosphothreonine at 519; C-terminal amide) [XRCC1 515-529 peptide phosphorylated on Ser518 and Thr519]	binds	binds

These are yes or no findings as the source states them, for the method shown. Binding calls can cover weak binding; strength is not graded here.
